Values from PubChem BioAssay AID1259254 (NCATS, 2017)
Aim: 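Genome-wide screen for genes that prevent DNA re-replication in cancer cells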 (primary screen). Cell system: human HCT116 colorectal cancer cells. Knock-down reagent: single siRNA against human genes. Duration: 3 days. Detection: 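Imaged Hoechst DNA stain sorts each cell into a cycle phase by DNA amount; per plate, G2 fraction set to 0% for non-targeting and 100% for GMNN siRNA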. Scale: G2 robust z-score and G2 cells, % of GMNN control: higher = more G2 cells, more excess DNA replication; raw share of cells in G2: higher = larger share of cells with G2 DNA content. Hit rule: 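Active siRNAs have a G2 robust z of 5 or more median absolute deviations over the median, which in these data means about 38% or higher of GMNN control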.
Shown is a random part of about 59,000 reagents. Of all reagents, about 1,550 (2.6%) got an active call. 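G2 share is only a proxy for re-replication; each gene was hit by three separate siRNAs, and active genes were retested.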 Raw values are not corrected between plates. A number with no mark means an inactive call. Reagents against one gene are numbered here. The record does not give: the amount of reagent.

gene | reagent no. | G2 robust z-score | G2 cells, % of GMNN control | raw share of cells in G2 (%)
NLRP1 (GeneID 22861) | 1 | 1.43 | 13 | 10.1
NLRP1 (GeneID 22861) | 2 | 0.0523 | 3.34 | 5.51
NLRP1 (GeneID 22861) | 3 | -0.362 | 0.418 | 3.33
TRAF5 (GeneID 7188) | 1 | 0.578 | 7.03 | 6.79
TRAF5 (GeneID 7188) | 2 | 0.546 | 6.81 | 6.8
TRAF5 (GeneID 7188) | 3 | -0.945 | -3.68 | 4.04
ATP5MJ (GeneID 9556) | 1 | 2.12 | 17.9 | 13.4
ATP5MJ (GeneID 9556) | 2 | -0.202 | 1.55 | 4.59
ATP5MJ (GeneID 9556) | 3 | -0.809 | -2.73 | 2.41
HDAC10 (GeneID 83933) | 1 | -0.376 | 0.323 | 5.56
HDAC10 (GeneID 83933) | 2 | 2.07 | 17.6 | 10.5
HDAC10 (GeneID 83933) | 3 | 2.2 | 18.5 | 11.6
RGS18 (GeneID 64407) | 1 | 6.54 (active) | 49 | 22
RGS18 (GeneID 64407) | 2 | -0.44 | -0.125 | 4.3
RGS18 (GeneID 64407) | 3 | 4.04 | 31.4 | 18.7
STXBP1 (GeneID 6812) | 1 | -0.177 | 1.72 | 4.14
STXBP1 (GeneID 6812) | 2 | 1.9 | 16.3 | 12.5
STXBP1 (GeneID 6812) | 3 | -0.447 | -0.174 | 3.04
CITED1 (GeneID 4435) | 1 | 1.29 | 12 | 10
CITED1 (GeneID 4435) | 2 | -0.596 | -1.23 | 2.79
CITED1 (GeneID 4435) | 3 | 1.92 | 16.5 | 12
RPL26P11 (GeneID 730070) | 1 | -0.0325 | 2.74 | 5.17
RPL26P11 (GeneID 730070) | 2 | 7.09 (active) | 52.9 | 21.1
RPL26P11 (GeneID 730070) | 3 | -0.424 | -0.0162 | 3.17
OR6S1 (GeneID 341799) | 1 | -0.516 | -0.665 | 3.92
OR6S1 (GeneID 341799) | 2 | -1.06 | -4.5 | 2.44
OR6S1 (GeneID 341799) | 3 | -0.367 | 0.383 | 3.43
GET3 (GeneID 439) | 1 | 0.522 | 6.64 | 6.95
GET3 (GeneID 439) | 2 | -0.15 | 1.91 | 4.88
GET3 (GeneID 439) | 3 | -0.193 | 1.61 | 3.98
THRAP3 (GeneID 9967) | 1 | -1.14 | -5.05 | 1.48
THRAP3 (GeneID 9967) | 2 | -0.999 | -4.06 | 3.67
THRAP3 (GeneID 9967) | 3 | -0.434 | -0.0894 | 4.71
ARHGAP5-AS1 (GeneID 84837) | 1 | -0.157 | 1.86 | 4.73
ARHGAP5-AS1 (GeneID 84837) | 2 | -0.581 | -1.12 | 3.13
ARHGAP5-AS1 (GeneID 84837) | 3 | -0.581 | -1.12 | 2.07
GRIP2 (GeneID 80852) | 1 | 3.58 | 28.2 | 14.3
GRIP2 (GeneID 80852) | 2 | 0.13 | 3.88 | 6.6
GRIP2 (GeneID 80852) | 3 | 0.304 | 5.11 | 5.32
GIPR (GeneID 2696) | 1 | -0.921 | -3.51 | 3.29
GIPR (GeneID 2696) | 2 | 0.0926 | 3.62 | 7.14
GIPR (GeneID 2696) | 3 | 0.819 | 8.73 | 5.95
SPIDR (GeneID 23514) | 1 | 0.36 | 5.5 | 6.48
SPIDR (GeneID 23514) | 2 | 0.151 | 4.03 | 5.69
SPIDR (GeneID 23514) | 3 | 0.462 | 6.22 | 5.47
LOC643855 (GeneID 643855) | 1 | -0.456 | -0.238 | 3.08
LOC643855 (GeneID 643855) | 2 | -0.665 | -1.71 | 2.99
LOC643855 (GeneID 643855) | 3 | 1.34 | 12.4 | 7.72

2 of these entries, set out differently.
gene,reagent no.,G2 robust z-score,"G2 cells, % of GMNN control",raw share of cells in G2 (%)
LOC643855 (GeneID 643855),2,-0.665,-1.71,2.99
LOC643855 (GeneID 643855),3,1.34,12.4,7.72
